Test [1] has as its target native mouse PDGF receptor on BALB/c 3T3 cells (mouse) (UniProt P05622). Description: displacement of 125I-PDGF from BALB/c 3T3 cells.
The target in test [2] is type B human PDGF receptor (B-hPDGF-R) on transfected CHO cells (CHO-HR5) (human) (UniProt P09619). Description: displacement of 125I-PDGF from CHO-HR5 cells; AA of lower affinity than BB. (In general: In a radioligand displacement assay an active substance lowers the binding of a labelled ligand.)

Amino acid sequences for entries named in this document (tags omitted). Residues count along the entry.
UniProt P05622, residues 32-1098: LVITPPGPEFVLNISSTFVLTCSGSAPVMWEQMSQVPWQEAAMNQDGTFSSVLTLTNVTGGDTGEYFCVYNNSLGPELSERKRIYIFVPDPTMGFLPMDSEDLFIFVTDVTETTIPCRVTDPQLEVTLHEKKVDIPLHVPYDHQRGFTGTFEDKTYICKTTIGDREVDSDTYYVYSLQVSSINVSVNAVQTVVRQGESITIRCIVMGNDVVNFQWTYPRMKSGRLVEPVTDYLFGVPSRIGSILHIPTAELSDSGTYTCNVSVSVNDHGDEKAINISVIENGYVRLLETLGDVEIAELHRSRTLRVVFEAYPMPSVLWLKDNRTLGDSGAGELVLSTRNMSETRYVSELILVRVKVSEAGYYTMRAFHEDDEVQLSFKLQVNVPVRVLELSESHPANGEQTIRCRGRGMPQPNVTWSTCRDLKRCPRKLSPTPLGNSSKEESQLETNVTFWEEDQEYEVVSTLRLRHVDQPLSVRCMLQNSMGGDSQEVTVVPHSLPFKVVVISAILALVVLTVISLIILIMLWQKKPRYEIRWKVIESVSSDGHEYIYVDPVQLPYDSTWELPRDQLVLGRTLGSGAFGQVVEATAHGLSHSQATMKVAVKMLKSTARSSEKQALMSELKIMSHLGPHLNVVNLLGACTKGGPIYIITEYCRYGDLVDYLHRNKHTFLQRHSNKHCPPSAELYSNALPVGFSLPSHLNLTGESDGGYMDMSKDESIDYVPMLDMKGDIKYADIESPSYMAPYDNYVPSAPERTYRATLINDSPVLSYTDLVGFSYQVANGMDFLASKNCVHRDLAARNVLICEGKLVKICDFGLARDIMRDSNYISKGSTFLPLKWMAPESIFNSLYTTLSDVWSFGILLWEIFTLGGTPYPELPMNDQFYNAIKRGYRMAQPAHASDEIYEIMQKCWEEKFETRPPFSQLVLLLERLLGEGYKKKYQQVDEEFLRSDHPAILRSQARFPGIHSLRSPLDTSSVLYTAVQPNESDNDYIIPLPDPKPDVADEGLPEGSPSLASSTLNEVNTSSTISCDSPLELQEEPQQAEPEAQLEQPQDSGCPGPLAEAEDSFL

No constants are given. Whether binding was seen depends on the method and setting. Some binding calls cover weakened binding; strength is not graded here.

Take “PDGF BB homodimer (recombinant) (from UniProt P01127 82-190) (ligand)”: the binding entry in test [1] is reported as “binds”.
With “human recombinant PDGF AA homodimer (yeast-derived) (from UniProt P04085 87-211) (ligand)”, the binding entry in test [1] and in test [2] was “binds” throughout.

(Values after patent US6372438.)
